Assay results as given in article PMC9675789.
No constants are given. Whether binding was seen depends on the method and setting. In cells and extracts the contact can be indirect. A result given as binding can be weak or reduced; the word gives no strength.

Amino acid sequences for entries named in this document (tags omitted). A change or cut given only in a name is not applied to a line headed by its entry. Residues count along the entry.
UniProt P54762: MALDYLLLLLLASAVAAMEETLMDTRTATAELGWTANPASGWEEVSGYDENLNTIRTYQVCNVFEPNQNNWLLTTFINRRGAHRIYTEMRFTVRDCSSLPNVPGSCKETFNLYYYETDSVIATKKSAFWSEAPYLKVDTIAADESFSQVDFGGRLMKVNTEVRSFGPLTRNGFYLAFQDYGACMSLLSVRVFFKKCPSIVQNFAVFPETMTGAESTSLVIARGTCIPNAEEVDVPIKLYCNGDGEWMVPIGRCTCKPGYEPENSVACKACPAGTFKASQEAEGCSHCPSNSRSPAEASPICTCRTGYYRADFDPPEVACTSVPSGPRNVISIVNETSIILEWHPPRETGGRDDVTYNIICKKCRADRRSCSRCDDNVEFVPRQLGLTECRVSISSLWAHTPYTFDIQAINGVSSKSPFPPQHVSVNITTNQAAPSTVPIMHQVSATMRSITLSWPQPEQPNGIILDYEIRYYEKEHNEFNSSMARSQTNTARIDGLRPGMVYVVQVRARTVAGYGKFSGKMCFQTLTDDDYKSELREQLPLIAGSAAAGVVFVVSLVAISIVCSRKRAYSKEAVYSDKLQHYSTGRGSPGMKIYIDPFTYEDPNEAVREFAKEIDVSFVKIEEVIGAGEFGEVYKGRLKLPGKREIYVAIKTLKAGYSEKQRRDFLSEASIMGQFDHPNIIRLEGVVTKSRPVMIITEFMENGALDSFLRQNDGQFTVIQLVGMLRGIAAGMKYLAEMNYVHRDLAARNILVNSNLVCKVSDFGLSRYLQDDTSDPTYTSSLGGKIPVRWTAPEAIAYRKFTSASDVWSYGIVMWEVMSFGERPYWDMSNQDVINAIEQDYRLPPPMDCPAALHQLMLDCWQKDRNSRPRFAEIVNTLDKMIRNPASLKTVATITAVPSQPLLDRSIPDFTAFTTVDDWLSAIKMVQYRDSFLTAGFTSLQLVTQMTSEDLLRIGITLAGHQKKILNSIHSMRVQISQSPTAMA
UniProt P52799, residues 28-333: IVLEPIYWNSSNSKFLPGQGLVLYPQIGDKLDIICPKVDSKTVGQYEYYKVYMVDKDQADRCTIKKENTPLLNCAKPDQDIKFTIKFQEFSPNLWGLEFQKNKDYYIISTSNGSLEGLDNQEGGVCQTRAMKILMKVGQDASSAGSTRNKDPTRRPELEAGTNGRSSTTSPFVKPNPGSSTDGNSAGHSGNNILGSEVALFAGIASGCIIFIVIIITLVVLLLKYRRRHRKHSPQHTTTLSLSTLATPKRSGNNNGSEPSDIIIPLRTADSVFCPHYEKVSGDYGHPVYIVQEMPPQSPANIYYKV

Assays:
Test in all cases: co-IP; anti-GFP antibody and agarose beads on lysate of A549 cells transfected with EphB1 wt/EGFP or EphB1 mutants/EGFP; IP buffer 20 mM Tris pH 7.5, 150 mM NaCl, 1% Nonidet P-40, 0.1% sodium deoxycholate; 4 °C overnight; western blot for EfnB2, p38 and p-p38; GFP null vector as negative control
[1] = molecular target: EphB1 mutant that lacks the ligand-binding domain (LBDΔ), EGFP fusion (UniProt P54762)
[2] = molecular target: EphB1 mutant that lacks the fibronectin type III domain (FNΔ), EGFP fusion (UniProt P54762)
[3] = molecular target: EphB1 mutant that lacks the cysteine-rich region (CRDΔ), EGFP fusion (UniProt P54762)

binding [1]: binds | binding [2]: binds | binding [3]: binds
Substance: EfnB2 (EphrinB2) (from UniProt P52799 28-333) (ligand)
